Results on two molecules are retold here after PMC7801519.

Results are given in words; binding and its absence hold for the method and conditions named. Binding seen in cells or lysates may run through a third protein. Some results given as binding are weak or reduced against the parent protein; the word gives no strength.

The target in test [1] is T1, MSL1, endogenous in NPC cell lines (human (endogenous in CNE2, SUNE1, CNE1 and HK1)) (UniProt Q68DK7).
T1 sequence: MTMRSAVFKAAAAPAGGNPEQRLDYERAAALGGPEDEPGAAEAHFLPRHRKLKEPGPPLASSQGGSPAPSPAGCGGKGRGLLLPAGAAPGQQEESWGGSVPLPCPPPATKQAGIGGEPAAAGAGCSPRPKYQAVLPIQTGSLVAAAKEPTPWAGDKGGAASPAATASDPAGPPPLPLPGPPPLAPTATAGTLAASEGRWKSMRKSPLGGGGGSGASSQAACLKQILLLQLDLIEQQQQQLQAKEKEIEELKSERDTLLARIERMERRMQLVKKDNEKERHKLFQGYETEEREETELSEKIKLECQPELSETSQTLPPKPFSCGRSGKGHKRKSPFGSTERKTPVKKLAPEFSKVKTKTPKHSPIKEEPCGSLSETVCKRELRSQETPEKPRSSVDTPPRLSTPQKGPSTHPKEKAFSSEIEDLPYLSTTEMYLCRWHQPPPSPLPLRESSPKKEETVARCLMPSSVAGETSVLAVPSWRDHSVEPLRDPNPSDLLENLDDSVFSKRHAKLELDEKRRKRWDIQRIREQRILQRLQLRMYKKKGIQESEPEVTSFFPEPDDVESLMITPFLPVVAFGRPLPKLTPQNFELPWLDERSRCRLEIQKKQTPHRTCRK
Put plainly: co-IP; endogenous proteins; precipitated with an anti-MSL1 antibody, blotted for MSL2, MSL3 and KAT8; CNE1 and HK1 stable PBK-overexpression or control lines; CNE2 and SUNE1 cells with PBK siRNAs or NC for 48 h; IP lysis buffer, overnight at 4 °C.

The target of test [2] is T2, PBK, endogenous in CNE2 and SUNE1 cells (human (endogenous in CNE2 and SUNE1)) (UniProt Q96KB5).
T2 sequence: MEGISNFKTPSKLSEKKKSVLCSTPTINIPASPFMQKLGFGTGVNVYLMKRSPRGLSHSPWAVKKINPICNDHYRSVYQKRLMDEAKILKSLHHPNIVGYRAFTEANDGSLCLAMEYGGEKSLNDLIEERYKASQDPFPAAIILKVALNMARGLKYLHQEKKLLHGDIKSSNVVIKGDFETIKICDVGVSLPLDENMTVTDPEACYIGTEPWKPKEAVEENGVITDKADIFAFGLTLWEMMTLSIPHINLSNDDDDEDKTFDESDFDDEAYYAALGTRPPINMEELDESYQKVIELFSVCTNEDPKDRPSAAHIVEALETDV
Put plainly: co-IP; endogenous proteins of CNE2 and SUNE1 cells; precipitated with an anti-PBK antibody, blotted with anti-MSL1; IP lysis buffer, overnight at 4 °C.

B1: MSL2, endogenous in NPC cell lines (protein, UniProt Q9HCI7 1-577)
chain: MNPVNATALYISASRLVLNYDPGDPKAFTEINRLLPYFRQSLSCCVCGHLLQDPIAPTNSTCQHYVCKTCKGKKMMMKPSCSWCKDYEQFEENKQLSILVNCYKKLCEYITQTTLARDIIEAVDCSSDILALLNDGSLFCEETEKPSDSSFTLCLTHSPLPSTSEPTTDPQASLSPMSESTLSIAIGSSVINGLPTYNGLSIDRFGINIPSPEHSNTIDVCNTVDIKTEDLSDSLPPVCDTVATDLCSTGIDICSFSEDIKPGDSLLLSVEEVLRSLETVSNTEVCCPNLQPNLEATVSNGPFLQLSSQSLSHNVFMSTSPALHGLSCTAATPKIAKLNRKRSRSESDSEKVQPLPISTIIRGPTLGASAPVTVKRESKISLQPIATVPNGGTTPKISKTVLLSTKSMKKSHEHGSKKSHSKTKPGILKKDKAVKEKIPSHHFMPGSPTKTVYKKPQEKKGCKCGRATQNPSVLTCRGQRCPCYSNRKACLDCICRGCQNSYMANGEKKLEAFAVPEKALEQTRLTLGINVTSIAVRNASTSTSVINVTGSPVTTFLAASTHDDKSLDEAIDMRFDC
Turning to B1, in test [1], the binding result is reported as “binds”.

B2: MSL1, endogenous in NPC cell lines (protein, UniProt Q68DK7 1-614)
chain: MTMRSAVFKAAAAPAGGNPEQRLDYERAAALGGPEDEPGAAEAHFLPRHRKLKEPGPPLASSQGGSPAPSPAGCGGKGRGLLLPAGAAPGQQEESWGGSVPLPCPPPATKQAGIGGEPAAAGAGCSPRPKYQAVLPIQTGSLVAAAKEPTPWAGDKGGAASPAATASDPAGPPPLPLPGPPPLAPTATAGTLAASEGRWKSMRKSPLGGGGGSGASSQAACLKQILLLQLDLIEQQQQQLQAKEKEIEELKSERDTLLARIERMERRMQLVKKDNEKERHKLFQGYETEEREETELSEKIKLECQPELSETSQTLPPKPFSCGRSGKGHKRKSPFGSTERKTPVKKLAPEFSKVKTKTPKHSPIKEEPCGSLSETVCKRELRSQETPEKPRSSVDTPPRLSTPQKGPSTHPKEKAFSSEIEDLPYLSTTEMYLCRWHQPPPSPLPLRESSPKKEETVARCLMPSSVAGETSVLAVPSWRDHSVEPLRDPNPSDLLENLDDSVFSKRHAKLELDEKRRKRWDIQRIREQRILQRLQLRMYKKKGIQESEPEVTSFFPEPDDVESLMITPFLPVVAFGRPLPKLTPQNFELPWLDERSRCRLEIQKKQTPHRTCRK
Regarding B2, the binding result in test [2] is listed as “binds”.
